Source: PubChem BioAssay AID1671190 (National Center for Advancing Translational Sciences (NCATS), 2021)
Out of some 580,000 compounds screened, about 6,100 (1.1%) were called active. The shares of active, inactive and inconclusive entries below differ from those in the screen. Calls come from the whole dose curve; as a rule, active = well fitted inhibition curve with a large enough effect; inconclusive = small, poorly fitted or top-dose-only effect, or another doubt; inactive = no such curve, though single readings can be large or run the other way. Potencies of inconclusive entries are doubtful fits and often do not repeat.

By UniProt entry, the sequences of proteins in these tests, tags left out.
UniProt P18054, whole entry, looked up: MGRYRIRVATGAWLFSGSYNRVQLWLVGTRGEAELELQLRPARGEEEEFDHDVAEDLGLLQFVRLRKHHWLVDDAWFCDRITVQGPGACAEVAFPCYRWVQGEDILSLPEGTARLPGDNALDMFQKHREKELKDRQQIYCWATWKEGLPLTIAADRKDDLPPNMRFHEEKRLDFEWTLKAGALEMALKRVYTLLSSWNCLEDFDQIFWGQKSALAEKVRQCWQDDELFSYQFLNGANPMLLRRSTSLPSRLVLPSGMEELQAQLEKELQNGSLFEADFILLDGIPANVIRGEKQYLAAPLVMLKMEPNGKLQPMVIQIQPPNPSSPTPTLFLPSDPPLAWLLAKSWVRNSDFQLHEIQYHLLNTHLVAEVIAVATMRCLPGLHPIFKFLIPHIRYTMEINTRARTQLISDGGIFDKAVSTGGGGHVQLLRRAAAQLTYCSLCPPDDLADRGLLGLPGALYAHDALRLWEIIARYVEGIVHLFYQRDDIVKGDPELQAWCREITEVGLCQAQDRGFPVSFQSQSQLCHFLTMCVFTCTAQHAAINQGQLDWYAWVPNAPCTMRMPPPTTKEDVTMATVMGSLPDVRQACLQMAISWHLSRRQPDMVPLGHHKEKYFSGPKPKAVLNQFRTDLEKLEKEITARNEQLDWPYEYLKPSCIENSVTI

These compounds were tested against Polyunsaturated fatty acid lipoxygenase ALOX12 (Homo sapiens) (UniProt P18054) (assay: Primary qHTS assay for inhibitors of human arachidonate 12S-lipoxygenase (ALOX12): Round 2). Conditions: purified 12hLO, xylenol orange hydroperoxide absorbance; activity change, negative = inhibition: at 108 µM (top of the series) unless noted.
In short: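 Purified human 12hLO at 150 nM in 25 mM Hepes, 0.01% Triton X-100, pH 7.0, preincubated 15 min at room temperature with compound. Reaction started with 40 uM arachidonic acid, 30 min at room temperature. Hydroperoxide measured by Fe-xylenol orange, 573/405 nm absorbance ratio.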
% is set by controls: 0 for no effect and ±100 for the full control effect; potency is the fitted concentration of half-maximal effect.

| SMILES | activity change, negative = inhibition | Potency |
| --- | --- | --- |
| Cc1c(Cl)cccc1NC(=O)CCC(=O)N/N=C/c1ccc[nH]1 | inactive: -14.2% |  |
| O=c1c(O)c(-c2ccc3c(c2)OCO3)oc2ccccc12 |  | inconclusive: 0.794 µM [inhibitor, full curve, poor fit] |
| Cc1ccc(S(=O)(=O)Oc2ccc(C(c3c(C)[nH][nH]c3=O)c3c(C)[nH][nH]c3=O)cc2)cc1 |  | inconclusive: 11.2 µM [inhibitor, full curve, poor fit] |
| COc1ccc(CN(C(=O)c2cccc(C#N)c2)C(C)C2CC2)cc1 (stereo unspecified) | inactive: 8.91% |  |
| CCOc1ccc(NC(=O)N(CCCN2CCOCC2)Cc2cccnc2)cc1 |  | inconclusive: 112 µM [inhibitor, single point] |
| CCOc1ccc(C(C)=O)cc1COC(=O)CNC(=O)c1cccs1 |  | inconclusive: 79.4 µM [inhibitor, partial curve, poor fit] |
| Cc1cc(=O)[nH]c(N/N=C/c2c(O)n(-c3ccccc3)c(=O)c3ccccc23)n1 |  | inconclusive: 141 µM [inhibitor, partial curve, poor fit] |
| CCn1c(=O)cc(OCC(=O)Nc2ccc3c(c2)OCCO3)c2ccccc21 |  | inconclusive: 112 µM [inhibitor, partial curve, poor fit] |
| C#Cc1ccc([C@H]2C=C(C(=O)N3CCN(Cc4ccc5c(c4)OCO5)CC3)O[C@@H](OCC)[C@@H]2CCCO)cc1 | inactive: 0.777% |  |
| CC(=O)Nc1ccc(CN2CCCCCCC2)cc1 |  | inconclusive: 0.178 µM [inhibitor, full curve, poor fit] |
| O=C(COC(=O)c1cccc(S(=O)(=O)N2CCc3ccccc32)c1)NCc1ccco1 | inactive: -4.97% |  |
| N#Cc1nc(COc2cccc(Cl)c2)oc1N1CCCCCC1 |  | inconclusive: 17.8 µM [inhibitor, full curve] |
| COC(=O)/C(=C\Nc1ccc(Oc2ccc(F)cc2F)nc1)NC(=O)c1ccccc1 |  | inconclusive: 89.1 µM [inhibitor, single point] |
| O=C(Nc1ccc(S(=O)(=O)Nc2nccs2)cc1)c1cc(=O)[nH]c2ccccc12 |  | inconclusive: 3.16 µM [inhibitor, full curve, poor fit] |
| CCOP(=O)(OCC)C(NC(=O)Nc1ccc(Cl)c(Cl)c1)C(N)=O (stereo unspecified) |  | inconclusive: 20 µM [inhibitor, full curve, poor fit] |
| COc1ccc(CNC(=O)CCc2nc3cccnc3n2Cc2ccc(OC)cc2)cc1 | inactive: 5.59% |  |
| COc1cc(OC)cc(N2C(=O)[C@@H]3C[C@@H](NC(=O)c4ccncc4)CCN3C2=O)c1 |  | inconclusive: 70.8 µM [inhibitor, partial curve, poor fit] |
| CCOc1ccc(NC(=O)CN2CCN(CC(=O)c3ccc(OC)c(OC)c3)CC2)cc1 | inactive: 0% |  |
| Cc1cccc(C)c1NC(=O)CN(CC(=O)O)CC(=O)O | inactive: 7.22% |  |
| COc1cccc(C(=O)NCCS(=O)(=O)NCCc2ccccc2)c1 |  | inconclusive: 35.5 µM [inhibitor, single point] |
| O=C(Nc1ccc(Cl)cc1)N[C@@H]1CC[C@H](CCNS(=O)(=O)c2ccccc2F)O[C@@H]1CO |  | inconclusive: 70.8 µM [inhibitor, partial curve, poor fit] |
| Cc1nc2cc(NC(=O)c3ccc(Cl)cc3)ccc2n1C | inactive: -1.57% |  |

| SMILES | activity change, negative = inhibition | Potency |
| --- | --- | --- |
| Cc1ccccc1Cc1c(C)nc2c(-c3ccccc3)c(C)[nH]n2c1=O | inactive: -16.5% |  |
| Nc1nc(CN2CCN(C(=O)c3cc(C(F)(F)F)cc(C(F)(F)F)c3)CC2)nc2ccccc12 | inactive: 61.7% |  |
| CCCCn1c(-c2nn(C)c(C)c2Cl)n[nH]c1=S |  | inconclusive: 35.5 µM [inhibitor, partial curve, poor fit] |
| Cc1c(NC(=O)c2nn(CCO)c(=O)c3ccccc23)c(=O)n(-c2ccccc2)n1C | inactive: -9.61% |  |
| O=C(Cn1nnnc1-c1ccc(Br)cc1)N1CCCCC1 |  | inconclusive: 50.1 µM [inhibitor, partial curve, poor fit] |
| COc1ccc(C(=O)Nc2ccc(N3CCCC3)cc2)cc1 |  | inconclusive: 35.5 µM [inhibitor, single point] |
| CC(=O)NCCC(=O)Nc1cc(S(=O)(=O)N2CCOCC2)ccc1Oc1ccccc1 |  | inconclusive: 35.5 µM [inhibitor, partial curve, poor fit] |
| O=C(O)c1cc(O)c2c(c1)[C@@H]([C@H]1c3cc(C(=O)O)cc(O)c3C(=O)c3c(O[C@@H]4O[C@H](CO)[C@@H](O)[C@H](O)[C@H]4O)cccc31)c1cccc(OC3O[C@H](CO)[C@@H](O)[C@H](O)[C@H]3O)c1C2=O (stereo partly specified) |  | active: 50.1 µM |
| CCOc1cc(/C=N/Nc2ccc(S(=O)(=O)Nc3ccccc3C(=O)O)cc2[N+](=O)[O-])cc(Cl)c1O |  | active: 35.5 µM |
| CCCC(C)NC(=O)c1cc(Br)c(Br)s1 (stereo unspecified) |  | inconclusive: 39.8 µM [inhibitor, partial curve, poor fit] |
| COc1cc(OC)c(OC)cc1CNCc1ccc2c(c1)OCO2 |  | inconclusive: 0.447 µM [inhibitor, full curve, poor fit] |
| CSCC(=O)NCCc1ccccn1 | inactive: 20.3% |  |
| CCN(C(=O)C1CCCO1)c1ccccc1 (stereo unspecified) |  | inconclusive: 20 µM [inhibitor, partial curve] |
| COc1ccc([C@H]2CC(=O)C=C(c3c(OC)cccc3OC)C2)cc1 | inactive: -3.2% |  |
| Cc1c(Cl)cccc1-c1ccc(CNCc2ccccn2)o1 |  | inconclusive: 2 µM [inhibitor, partial curve, poor fit] |
| CC(Sc1nc(Cl)nc2nc[nH]c12)C(=O)N1CCN(c2ccccc2)CC1 (stereo unspecified) | inactive: 27.3% |  |
| Cc1ccc(NC(=O)Nc2ccccc2OCc2cc(=O)n3cccc(C)c3n2)cc1Cl | inactive: -6.4% |  |
| C=CCOC(=O)C1=C(C)Nc2nnnn2C1c1cccc(OC)c1OC (stereo unspecified) |  | inconclusive: 56.2 µM [inhibitor, single point] |
| O=C(C1CN(c2ccccc2)C(=O)N1)N1CCN(Cc2ccccc2)CC1 (stereo unspecified) | inactive: 29.6% |  |
| CNC(=O)NC(=O)Cn1c(=O)c2c(ncn2CCC(C)C)n(Cc2ccccc2)c1=O |  | inconclusive: 44.7 µM [inhibitor, single point] |
| Cc1ccc(C(=O)O)c(C(=O)Nc2nc3ccccc3s2)c1 |  | inconclusive: 35.5 µM [inhibitor, single point] |
| C=CCNc1cccc2c1S(=O)(=O)N[C@@H](C)CO2 |  | inconclusive: 35.5 µM [inhibitor, partial curve] |

One compound at a time (already shown):
`C=CCNc1cccc2c1S(=O)(=O)N[C@@H](C)CO2` reads Potency: inconclusive: 35.5 µM [inhibitor, partial curve]
`O=c1c(O)c(-c2ccc3c(c2)OCO3)oc2ccccc12` reads Potency: inconclusive: 0.794 µM [inhibitor, full curve, poor fit]
`COc1cccc(C(=O)NCCS(=O)(=O)NCCc2ccccc2)c1` reads Potency: inconclusive: 35.5 µM [inhibitor, single point]
`C#Cc1ccc([C@H]2C=C(C(=O)N3CCN(Cc4ccc5c(c4)OCO5)CC3)O[C@@H](OCC)[C@@H]2CCCO)cc1` reads activity change, negative = inhibition: inactive: 0.777%

The listing continues.

| SMILES | activity change, negative = inhibition | Potency |
| --- | --- | --- |
| CCC(=O)N1CCc2c(C(=O)NCc3ccc(OC)cc3)cccc21 |  | inconclusive: 3.16 µM [inhibitor, full curve, poor fit] |
| Cc1ccc(C(=O)c2cc(C)sc2NC(=O)CN2CCN(C(=O)c3ccco3)CC2)cc1 |  | inconclusive: 31.6 µM [inhibitor, single point] |
| COc1ccc(-n2c(COc3ccccc3)n[nH]c2=S)cc1 |  | inconclusive: 31.6 µM [inhibitor, single point] |
| COc1cccc2cc(C(=O)Nc3ccc(NC(C)=O)cc3)c(=O)oc12 | inactive: 3.11% |  |
| N#C/C(=C\c1ccc(OCCN2CCOCC2)cc1)C(=O)Nc1ccccc1F |  | inconclusive: 126 µM [inhibitor, partial curve, poor fit] |
| COc1ccc(S(=O)(=O)N(C(=O)c2ccncc2)c2ccc3oc(C)c(C(C)=O)c3c2)cc1 |  | inconclusive: 141 µM [inhibitor, single point] |
| CC(=O)N1CCC(Oc2ccc(Cl)cc2C(=O)NCCCN2CCCC2=O)CC1 | inactive: 4.21% |  |
| Cc1ccnc(NC(c2cc(C)ccc2O)c2ccc3cccnc3c2O)c1 (stereo unspecified) | inactive: -0.697% |  |
| COc1ccc(-c2cn3c(n2)sc2cc(C(=O)NC4CCCCC4)ccc23)cc1 |  | inconclusive: 112 µM [inhibitor, partial curve, poor fit] |
| CC(OC(=O)CNC(=O)c1ccc(Cl)c([N+](=O)[O-])c1)C(=O)NC1CCCCC1C (stereo unspecified) |  | inconclusive: 39.8 µM [inhibitor, partial curve, poor fit] |
| COc1ccccc1-c1cncnc1NCCNC(C)=O |  | inconclusive: 39.8 µM [inhibitor, partial curve, poor fit] |
| Cc1ccc(C)c(NC(=O)C(NS(=O)(=O)c2ccc3c(c2)CCC(=O)N3)c2ccccc2)c1 (stereo unspecified) |  | inconclusive: 79.4 µM [inhibitor, partial curve, poor fit] |
| CCc1nc2c(c(-c3ccc(OC)cc3)n1)CN(C(=O)c1ccc(C)cc1)CC2 |  | inconclusive: 89.1 µM [inhibitor, single point] |
| O=C(CSCc1ccccc1Br)N/N=C/c1ccc2c(c1)OCO2 | inactive: -3.77% |  |
| Cc1c(/C(O)=C2\C(=O)C(=O)N(CCCN(C)C)C2c2ccco2)cnn1-c1ccccc1 (stereo unspecified) |  | inconclusive: 35.5 µM [inhibitor, single point] |
| COc1ccccc1N1CCN(Cc2cc(COC(C)C)c3cccnc3c2O)CC1 |  | inconclusive: 112 µM [inhibitor, single point] |
| CC1(NC(=O)/C=C/c2nc3ccccc3s2)CCS(=O)(=O)C1 (stereo unspecified) |  | inconclusive: 89.1 µM [inhibitor, single point] |
| COc1ccc(S(N)(=O)=O)cc1C(=O)N1CCC2(CN(C)C(=O)O2)C1 (stereo unspecified) | inactive: 22.1% |  |
| O=C(OCc1cc(=O)n2c(n1)sc1ccccc12)c1ccc(O)cc1 | inactive: -24.8% |  |
| O=C(Nc1cccc(Cl)c1)c1ccc2c(c1)OCCO2 |  | inconclusive: 89.1 µM [inhibitor, single point] |
| Cc1ccc(NC(=O)CSc2nc(=O)n(CCN3CCOCC3)c3c2CCC3)cc1Cl |  | inconclusive: 89.1 µM [inhibitor, partial curve, poor fit] |
| CN(C)c1ccc(NC(=O)c2ccc(N3CCOCC3)nc2)cc1 | inactive: -13.6% |  |
